From US20260022160A1 (AFFYXELL THERAPEUTICS, published 2026)
Changes are numbered by the printed parent chain. Results are given in words; binding and its absence hold for the method and conditions named. Some entries that bind do so weakly or less than the wild type.

T1: human CD40L (human, UniProt P29965 113-261, limits assumed)
T1 sequence (looked up): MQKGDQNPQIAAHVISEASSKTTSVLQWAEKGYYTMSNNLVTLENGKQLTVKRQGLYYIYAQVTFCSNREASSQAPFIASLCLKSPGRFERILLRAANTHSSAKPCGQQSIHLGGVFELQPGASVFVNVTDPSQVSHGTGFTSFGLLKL

B1: stefin A protein variant clone 342 (designed binder)
chain: MIPGGLSEAKPATPEIQEIVDKVKPQLEEKTGETYGKLEAVQYKTQVVQWIKWGNILGTNYYIKVRAGDNKYMHLKVFKSLYEAIERWHGEDLVLTGYQVDKNKDDELTGF
B2: stefin A protein variant clone 242 (designed binder)
chain: MIPGGLSEAKPATPEIQEIVDKVKPQLEEKTGETYGKLEAVQYKTQVVDLNSSVWYQGTNYYIKVRAGDNKYMHLKVFKSLYWLLEIEHREDLVLTGYQVDKNKDDELTGF
B3: stefin A protein variant clone 333 (designed binder)
chain: MIPGGLSEAKPATPEIQEIVDKVKPQLEEKTGETYGKLEAVQYKTQVVWLPWTVELIGTNYYIKVRAGDNKYMHLKVFKSLGEIWSAKHKEDLVLTGYQVDKNKDDELTGF
B4: stefin A protein variant clone 341 (designed binder)
chain: MIPGGLSEAKPATPEIQEIVDKVKPQLEEKTGETYGKLEAVQYKTQVVYQKVITWWQGTNYYIKVRAGDNKYMHLKVFKSLYWENHRGHVEDLVLTGYQVDKNKDDELTGF
B5: stefin A protein variant clone 229 (designed binder)
chain: B4 chain with Y49Q, Q50Y, V52I, Q57S, Y82V, W83Y, E84K, H86K, H89G, V90H
B6: stefin A protein variant clone 231 (designed binder)
chain: MIPGGLSEAKPATPEIQEIVDKVKPQLEEKTGETYGKLEAVQYKTQVVYYQIITWWQGTNYYIKVRAGDNKYMHLKVFKSLGIRKKQQQREDLVLTGYQVDKNKDDELTGF
B7: stefin A protein variant clone 339 (designed binder)
chain: MIPGGLSEAKPATPEIQEIVDKVKPQLEEKTGETYGKLEAVQYKTQVVRVFDTPLAAGTNYYIKVRAGDNKYMHLKVFKSLPWQYRNNPEEDLVLTGYQVDKNKDDELTGF
B8: stefin A protein variant clone 240 (designed binder)
chain: MIPGGLSEAKPATPEIQEIVDKVKPQLEEKTGETYGKLEAVQYKTQVVTAYYIHVNAGTNYYIKVRAGDNKYMHLKVFKSLPYGYRAKAPEDLVLTGYQVDKNKDDELTGF
B9: stefin A protein variant clone 344 (designed binder)
chain: MIPGGLSEAKPATPEIQEIVDKVKPQLEEKTGETYGKLEAVQYKTQVVTSERLWILYGTNYYIKVRAGDNKYMHLKVFKSLTPRYVPLNPEDLVLTGYQVDKNKDDELTGF
B10: stefin A protein variant clone 237 (designed binder)
chain: MIPGGLSEAKPATPEIQEIVDKVKPQLEEKTGETYGKLEAVQYKTQVVVYRIVSWWRGTNYYIKVRAGDNKYMHLKVFKSLASDIYLRIDEDLVLTGYQVDKNKDDELTGF
B11: stefin A protein variant clone 236 (designed binder)
chain: MIPGGLSEAKPATPEIQEIVDKVKPQLEEKTGETYGKLEAVQYKTQVVNSLGVSEWVGTNYYIKVRAGDNKYMHLKVFKSLPYWYRKNNLEDLVLTGYQVDKNKDDELTGF
B12: stefin A protein variant clone 340 (designed binder)
chain: MIPGGLSEAKPATPEIQEIVDKVKPQLEEKTGETYGKLEAVQYKTQVVWWDIPWIWVGTNYYIKVRAGDNKYMHLKVFKSLQNDELYPYKEDLVLTGYQVDKNKDDELTGF
B13: stefin A protein variant clone 230 (designed binder)
chain: MIPGGLSEAKPATPEIQEIVDKVKPQLEEKTGETYGKLEAVQYKTQVVHYYVHYNDQGTNYYIKVRAGDNKYMHLKVFKSLWGENLFAKWEDLVLTGYQVDKNKDDELTGF
B14: stefin A protein variant clone 335 (designed binder)
chain: MIPGGLSEAKPATPEIQEIVDKVKPQLEEKTGETYGKLEAVQYKTQVVLFEVLQGSSGTNYYIKVRAGDNKYMHLKVFKSLGEIVWYQVEEDLVLTGYQVDKNKDDELTGF
B15: stefin A protein variant clone 337 (designed binder)
chain: MIPGGLSEAKPATPEIQEIVDKVKPQLEEKTGETYGKLEAVQYKTQVVWWQENAEWIGTNYYIKVRAGDNKYMHLKVFKSLGYAVFHKYLEDLVLTGYQVDKNKDDELTGF
B16: stefin A protein variant clone 331 (designed binder)
chain: MIPGGLSEAKPATPEIQEIVDKVKPQLEEKTGETYGKLEAVQYKTQVVLDQHHVYQVGTNYYIKVRAGDNKYMHLKVFKSLALLIHHDPWEDLVLTGYQVDKNKDDELTGF
B17: stefin A protein variant clone 243 (designed binder)
chain: MIPGGLSEAKPATPEIQEIVDKVKPQLEEKTGETYGKLEAVQYKTQVVFTYQISYTVGTNYYIKVRAGDNKYMHLKVFKSLRWRYPARKPEDLVLTGYQVDKNKDDELTGF
B18: stefin A protein variant clone 235 (designed binder)
chain: MIPGGLSEAKPATPEIQEIVDKVKPQLEEKTGETYGKLEAVQYKTQVVSWVKPDNELGTNYYIKVRAGDNKYMHLKVFKSLWQVHDKQWLEDLVLTGYQVDKNKDDELTGF
B19: stefin A protein variant clone 239 (designed binder)
chain: B18 chain with S49G, V51I, P53V, E56V, V84D, D86H, K87N, Q88V, W89K, L90R
B20: stefin A protein variant clone 238 (designed binder)
chain: MIPGGLSEAKPATPEIQEIVDKVKPQLEEKTGETYGKLEAVQYKTQVVYYRQLKFNTGTNYYIKVRAGDNKYMHLKVFKSLFLHRKPQDREDLVLTGYQVDKNKDDELTGF
B21: stefin A protein variant clone 347 (designed binder)
chain: MIPGGLSEAKPATPEIQEIVDKVKPQLEEKTGETYGKLEAVQYKTQVVSFQREHYSWGTNYYIKVRAGDNKYMHLKVFKSLFDIFYFNPIEDLVLTGYQVDKNKDDELTGF
B22: stefin A protein variant clone 336 (designed binder)
chain: MIPGGLSEAKPATPEIQEIVDKVKPQLEEKTGETYGKLEAVQYKTQVVPYSWQHEVVGTNYYIKVRAGDNKYMHLKVFKSLIVFYLQEYYEEDLVLTGYQVDKNKDDELTGF
B23: stefin A protein variant clone 346 (designed binder)
chain: MIPGGLSEAKPATPEIQEIVDKVKPQLEEKTGETYGKLEAVQYKTQVVWTADWLWTVGTNYYIKVRAGDNKYMHLKVFKSLYDPSEWFPREDLVLTGYQVDKNKDDELTGF
B24: stefin A protein variant clone 332 (designed binder)
chain: MIPGGLSEAKPATPEIQEIVDKVKPQLEEKTGETYGKLEAVQYKTQVVLEDVWGVWAGTNYYIKVRAGDNKYMHLKVFKSLEFQHRTFNHEDLVLTGYQVDKNKDDELTGF
B25: stefin A protein variant clone 234 (designed binder)
chain: MIPGGLSEAKPATPEIQEIVDKVKPQLEEKTGETYGKLEAVQYKTQVDAGTNYYIKVRAGDNKYMHLKVFKSLYFYRHWEDREDLVLTGYQVDKNKDDELTGF
B26: stefin A protein variant clone 233 (designed binder)
chain: MIPGGLSEAKPATPEIQEIVDKVKPQLEEKTGETYGKLEAVQYKTQVVLQDQWPWRDGTNYYIKVRAGDNKYMHLKVFKSLTYGKKWYSWEDLVLTGYQVDKNKDDELTGF
B27: stefin A protein variant clone 334 (designed binder)
chain: MIPGGLSEAKPATPEIQEIVDKVKPQLEEKTGETYGKLEAVKYKTQVVQHFTWDWFWGTNYYIKVRAGDNKYMHLKVFKSLPEYKPVDHTEDLVLTGYQVDKNKDDELTGF
B28: stefin A protein variant clone 227 (designed binder)
chain: MIPGGLSEAKPATPEIQEIVDKVKPQLEEKTGETYGKLEAVQYKTQVVHDVFYDQKAGTNYYIKVRAGDNKYMHLKVFKSLKWWYRIGNPEDLVLTGYQVDKNKDDELTGF
B29: stefin A protein variant clone 348 (designed binder)
chain: MIPGGLSEAKPATPEIQEIVDKVKPQLEEKTGETYGKLEAVQYKTQVVGKTWHKHNRGTNYYIKVRAGDNKYMHLKVFKSLNLYFFFYQTEDLVLTGYQVDKNKDDELTGF
B30: stefin A protein variant clone 345 (designed binder)
chain: MIPGGLSEAKPATPEIQEIVDKVKPQLEEKTGETYGKLEAVQYKTQVVEHHSQPLAHGTNYYIKVRAGDNKYMHLKVFKSLPYHAFDWYWEDLVLTGYQVDKNKDDELTGF
B31: stefin A protein variant clone 338 (designed binder)
chain: MIPGGLSEAKPATPEIQEIVDKVKPQLEEKTGETYGKLEAVQYKTQVVSYDPVYQDTGTNYYIKVRAGDNKYMHLKVFKSLFFHRTSVVYEDLVLTGYQVDKNKDDELTGF
B32: stefin A protein variant clone 241 (designed binder)
chain: MIPGGLSEAKPATPEIQEIVDKVKPQLEEKTGETYGKLEAVQYKTQVVVRVEPTPNDGTNYYIKVRAGDNKYMHLKVFKSLPLVQELWGFEDLVLTGYQVDKNKDDELTGF
B33: stefin A protein variant clone 228 (designed binder)
chain: MIPGGLSEAKPATPEIQEIVDKVKPQLEEKTGETYGKLEAVQYKTQVVPFKIITVWHGTNYYIKVRAGDNKYMHLKVFKSLLERFNFHGEEDLVLTGYQVDKNKDDELTGF
B34: stefin A protein variant clone 343 (designed binder)
chain: MIPGGLSEAKPATPEIQEIVDKVKPQLEEKTGETYGKLEAVQYKTQVVATPEKKYVVGTNYYIKVRAGDNKYMHLKVFKSLWNANILRYWEDLVLTGYQVDKNKDDELTGF
B35: stefin A protein variant clone 232 (designed binder)
chain: MIPGGLSEAKPATPEIQEIVDKVKPQLEEKTGETYGKLEAVQYKTQVVVHGPHLEQAGTNYYIKVRAGDNKYMHLKVFKSLGHAFYFAFVEDLVLTGYQVDKNKDDELTGF

Molecular target: T1, human CD40L
Test: ELISA, bacterial lysate on plate-bound human CD40L, anti-Myc tag detection

| binding | Binder |
| --- | --- |
| binds | B1 |
| binds | B2 |
| binds | B3 |
| binds | B4 |
| binds | B5 |
| binds | B6 |
| binds | B7 |
| binds | B8 |
| binds | B9 |
| binds | B10 |
| binds | B11 |
| binds | B12 |
| binds | B13 |
| binds | B14 |
| binds | B15 |
| binds | B16 |
| binds | B17 |
| binds | B18 |

| binding | Binder |
| --- | --- |
| binds | B19 |
| binds | B20 |
| binds | B21 |
| binds | B22 |
| binds | B23 |
| binds | B24 |
| binds | B25 |
| binds | B26 |
| binds | B27 |
| binds | B28 |
| binds | B29 |
| binds | B30 |
| binds | B31 |
| binds | B32 |
| binds | B33 |
| binds | B34 |
| binds | B35 |
